Results as given in patent US20250129334A1, “LINEAGE SPECIFICATION DURING STEM CELL TRANSITION” (Amniotics AB, priority 2021, published 2025).
For at least one compound, name, drawing or mass did not settle the structure.

What was measured:
Format in all cases: cell-based, human
Notch1 = Notch1 expression by flow cytometry; settings: day 3 of subculture; DCA 3 mM
HE cells = assay: Single-cell RNAseq of treated HE cells at day 2 of subculture
Experimental: Sorted HE, EHT and HSC-like cells as well magnetically selected (Miltenyi Biotec) cord blood CD34^+ cells were plated onto Matrigel (16 μg/cm^2, Corning)-coated 96-well flat bottom plates in HE medium (Ditadi, A. & Sturgeon, C. M. Directed differentiation of definitive hemogenic endothelium and hematopoietic progenitors from human pluripotent stem cells. Methods 101, 65-72 (2016)) with 1% penicillin-streptomycin and kept in a humidified incubator at 37° C., 5% CO2, 4% O2 overnight. The following day (day 0), wells were washed twice with PBS and fresh HE medium was added, together with UK5099 (10 μM) or DCA (3 mM), where indicated. On day 1 and 2 (as indicated), cells were washed twice with PBS 0.04% UltraPure BSA and collected after a 2-minute incubation at 37° C. with StemPro Accutase Cell Dissociation Reagent. Cells were spun down, resuspended in PBS 0.04% UltraPure BSA, counted (yield between 8,000-18,000 cells) and library preparation was conducted according to the Chromium Single Cell 3′ Reagent kit v3 instructions (10× Genomics). Sequencing was performed on a NOVASeq 6000 from Illumina with the run parameters (28-8-0-91) recommended by 10× Genomics with a final loading concentration of 300 pM of the pooled libraries. Human Umbilical Cord Blood samples were collected from Skine University Hospital (Lund and Malmo) and Helsingborg Hospital with informed consents according to guidelines approved by the regional ethical committee.
The data was processed and analyzed using Seurat v3.1.0, where cells were allowed to have up to 20% mitochondrial reads prior to log-normalization and finding the top 500 variable genes using the “vst” method. Cell cycle scores were calculated and the data was scaled regressing on mitochondrial content and the difference of the S and G2M score. Principal components were calculated prior to calculating a UMAP. Pseudotime trajectories describing two developmental routes were identified in our EHT dataset using Slingshot (Street, K. et al. Slingshot: cell lineage and pseudotime inference for single-cell transcriptomics. BMC Genomics 19,477 (2018)) along which the cells were ordered. The cells were then binned along each trajectory where the cell type composition of each bin was calculated as percentages. Cord blood CD34+ cells were mapped to our data and labeled using scCoGAPS (Stein-O'Brien, G. L. et al. Decomposing Cell Identity for Transfer Learning across 23 Cellular Measurements, Platforms, Tissues, and Species. Cell Syst 8, 395-411.e8 (2019)). CS13 data from Zeng et al. (Zeng, Y. et al. Tracing the first hematopoietic stem cell generation in human embryo by single-cell RNA sequencing. Cell Res 1-14 (2019)) was read and processed to make a UMAP from which the cells they name as “AEC” and “Hem” were identified. These 99 cells were mapped to our data and labeled using SCMAP59. Carnegie Stage 13 data from Zeng et al. was mapped to our EHT dataset using scCoGAPS where 10 patterns were identified, named according to their respective weights (as shown in Table 1) and then projected using projectR. […] The CS 13 dorsal aorta dataset from Zeng et al. was mapped onto our EHT dataset using scCoGAPS. The patterns resulting from this analysis were classified as the cell types described by Zeng et al.
Each cell was assigned to the group that achieved the highest weight. […]

[1] = test system: HBE1, HBG1-2, HBA1-2 transcripts; assay: Globin transcript q-PCR in CFU colonies; settings: normalized to KLF1; UK5099 10 μM, DCA 3 mM
Experimental: Subcultured HE cells were treated with StemPro Accutase Cell Dissociation Reagent for 2 minutes at 37° C. and dissociated cells were resuspended in 3 ml Methocult H4230 (STEMCELL Technologies, France) (prepared according to manufacturer's instructions, with 20 mL Iscove's Modified Dulbecco's Medium containing 2.5 μg hSCF, 5 μg GM-CSF, 2.5 μg IL-3 and 500 U EPO). Each mixture was divided onto 2 wells of a non-tissue culture treated 6-well plate. Following a 12-day incubation in a humidified incubator at 37° C., 5% CO2, 20% O2, colonies were morphologically distinguished and scored. For globin analysis, colonies in Methocult wells were harvested with PBS, washed thoroughly and frozen in RLT buffer with β-mercaptoethanol. Following RNA extraction and RT (Qiagen), gene expression was assessed with taqman probes by q-PCR. The taqman probes used for this assay are HBA1/2 (Hs00361191_g1), HBE1 (Hs00362216_m1), HBG2/1 (Hs00361131_g1) and KLF1 (Hs00610592_m1).

## O=C(O)C(Cl)Cl [DCA, dichloroacetate]
Notch1
  level of Notch1 in HE-derived CD43+CD45+ cells: increased level
HE cells; clusters 6 and 7
  average expression levels of erythroid lineage genes (RYK, KLF3, TAL1, GATA2, ZFPM1, KLF1, NFE2, ANK1, HBQ1): nearly absent
HE cells; clusters 6 and 7, vs control and UK5099
  lymphoid/myeloid transcription factors (SWAP70, POU2F2, GATA3, CSF1R, PF4, BCL11B, CEBPE, IRF8): higher levels
HE cells; compared to the control
  NOTCH1, JAG1 and HES1 levels: higher
HE cells; day 2
  cholesterol efflux genes: higher levels
  percentage of cells in cluster 6: constant between conditions
[1]
  HBA1-2 (adult globin) expression: did not have an effect
